Assay results reported in patent publication US20260176266A1, “PIPERIDINOPYRIMIDINE DERIVATIVE, PREPARATION METHOD THEREFOR AND USE THEREOF IN MEDICINE” (TUOJIE BIOTECH (SHANGHAI) CO., LTD., priority 2022, published 2026).
Some of these results come from one statement about several compounds together.

Tested on: OVCAR3 ovarian cancer cells
Assay: Inhibitory activity against ovarian cancer cells (OVCAR3), CellTiter-Glo viability
Type: cell-based
Settings: OVCAR3, statement in words
Method: OVCAR3 ovarian cancer cells were cultured in a cell incubator at […] with 5% CO2 using RPMI 1640 medium with […]. On the first day, the cells were plated in a 96-well plate at a cell concentration of 2500 cells/well and cultured overnight in the incubator. On the second day, the cells were treated with compounds. The maximum compound concentration was 10 μM and was 3-fold diluted to obtain 9 concentrations, and the final concentration of DMSO was 0.1%. After the cells were cultured in the incubator for another 5 days, cell viability was tested using the Celltiter Glo assay kit (Promega), and the testing method was consistent with the operational method provided by the kit. Data were processed using GraphPad Prism 8, and IC50 was calculated.
[formula] • X: the logarithm of the compound concentration; Y: % inhibition.

## C[C@@H]1Cc2cnc(NC3Cc4ccccc4C3)nc2CN1C(=O)N[C@H](CN(C)C)c1ccccc1 [Example 7, (R)-2-((2,3-Dihydro-1H-inden-2-yl)amino)-N—((S)-2-(dimethylamino)-1-phenylethyl)-6-methyl-5,8-dihydropyrido[3,4-d]pyrimidine-7(6H)-carboxamide]
  activity against OVCAR3 compared with the compound of Example 18: superior to that of the compound of Example 18
